Laboratory results published in patent publication US12636260B2, “Application of α-asarone in preparation of medicine for preventing or treating hemorrhagic stroke” (CHENGDU XINRUI TAIKANG TECHNOLOGY CO., LTD., priority 2021, dated 2026).

Test system: SAH rats
Test: Short-term neurological function of SAH rats (Garcia score, beam balance test, bleeding score)
Format: in vivo, rat
Conditions: SAH model, SAH severity after euthanasia
Procedure: Experimental grouping: At 2 h after endovascular perforation or collagenase VII injection, Zea Longa score was used to evaluate the neurological function of rats. Successful model rats were randomly divided into groups for administration.
All groups were administrated through the tail vein injection except for group N administrated intraperitoneally.
The rats were fasted for 12 hours before operation, and were anesthetized with 4% isoflurane, and kept anesthetized with 2% isoflurane. The animals were fixed in the supine position with the body temperature maintained at about 37° C. A traditional skin incision of the neck was performed along the midline. The muscle and fascia were separated along the medial margin of the sternocleidomastoid muscle to expose the right side, then the common carotid artery (CCA), external carotid artery (ECA) and internal carotid artery (ICA) were bluntly separated with disposal lines placed at CCA proximal end, ICA and ECA for use. The CCA proximal end and the ECA were ligated, and the ICA was temporarily clamped with an arterial clip, and then a small hole was poked with a needle at about 4 mm from the bifurcation at the CCA. A nylon suture was introduced into the CCA from the hole and advanced through the ICA after releasing the arterial clip, and the suture was inserted intracranially. […] The suture moved forward for roughly 2 mm to perforate the artery followed by instant withdraw, and then the suture was completely removed and the ICA was ligated. Finally, the incision was cleaned with normal saline and sutured. The sham group conducted the same procedure as the model group except for the perforation. After awakening from anesthesia, the animals were raised normally.
The SAH severity was grading after rat's euthanasia, i.e., completing the evaluation of short-term neurological function. The score was determined by the amount of subarachnoid hemorrhage on the surface of basal cistern and brain tissue which was divided into six parts by the Willis ring composed of basilar artery, anterior cerebral artery, internal carotid artery, posterior cerebral artery and posterior communicating artery. Each part was graded from 0 to 3 points according to the amount of subarachnoid blood clots, i.e., 0 points: no subarachnoid blood; 1 point: a small amount of subarachnoid blood; 2 points: moderate amount of blood clots with recognizable arteries; 3 points: blood clots cover all arteries in the area. All 6 part scores were added up for a total of 18 points. According to the final score, SAH hemorrhage severity could be divided into mild subarachnoid hemorrhage (0 to 7 points), moderate subarachnoid hemorrhage (8 to 12 points), and severe subarachnoid hemorrhage (13 to 18 points). The moderate to severe SAH models were selected for statistical analysis (score≥8 points).
According to Zea Longa's neurological function score, the rats were scored 2 hours after the operation when they were awake from anesthesia. Successful model rats with a score of 1 to 3 points were enrolled in the group: • 0 points: no neurological deficits with normal activity; • 1 point: inability to fully extend the contralateral forepaw; • 2 points: the animal appears to turn in circles when crawling; • 3 points: the animal tends to lean to the hemiplegic side; • 4 points: the animal cannot walk spontaneously or loses consciousness. 1.4 Assessment of Short-Term Neurological Function
The neurological function of rats was comprehensively evaluated with Garcia score and beam balance test 24 hours after modeling. The criteria of Garcia score are shown in Table 1, which evaluates the movement, sensation, climbing and limb symmetry of the rats with the score range of 3 to 18 points. The lower the score, the more severe the neurological injury. The criteria of the beam balance test are shown in Table 2, which evaluated the proprioception and body coordination of rats with the score range of 0 to 6 points. […]

CCOC(=O)C1=C[C@]2(CC)CCCN3CCc4c(n1c1ccccc41)[C@@H]32 [vinpocetine, reference compound]
Bleeding score (group V, vinpocetine injection 2 mg/kg tail vein): 11.40

C/C=C\c1cc(OC)c(OC)cc1OC [β-asarone, reference compound]
Bleeding score (group B, β-asarone emulsion injection 20 mg/kg tail vein): 11.20

C/C=C/c1cc(OC)c(OC)cc1OC [α-asarone, trans-2,4,5-trimethoxy-1-propenylbenzene]
Bleeding score (group H, α-asarone emulsion injection 30 mg/kg tail vein): 11.75 | Bleeding score (group L, α-asarone emulsion injection 7.5 mg/kg tail vein): 10.94 | Bleeding score (group M, α-asarone emulsion injection 15 mg/kg tail vein): 10.64 | Bleeding score (group O, α-asarone emulsion oral administration 40 mg/kg): 10.39
